# Out of some 78,000 compounds screened, about 1,800 (2.3%) were called active. The inconclusive results got no clear call from the source; some entries with a clear call stand among them for comparison. No stated cut-off is given here; in the data, active means inhibition above about 30%; inconclusive means mostly about 10% to 28%; inactive means weaker than that. Where a structure was tested more than once in an assay, its records may differ in their call.
# By UniProt entry, the sequences of proteins in these tests, tags left out. Where a name states a change or a piece, a line headed by the entry shows the natural chain unless it says otherwise.
# UniProt Q01638: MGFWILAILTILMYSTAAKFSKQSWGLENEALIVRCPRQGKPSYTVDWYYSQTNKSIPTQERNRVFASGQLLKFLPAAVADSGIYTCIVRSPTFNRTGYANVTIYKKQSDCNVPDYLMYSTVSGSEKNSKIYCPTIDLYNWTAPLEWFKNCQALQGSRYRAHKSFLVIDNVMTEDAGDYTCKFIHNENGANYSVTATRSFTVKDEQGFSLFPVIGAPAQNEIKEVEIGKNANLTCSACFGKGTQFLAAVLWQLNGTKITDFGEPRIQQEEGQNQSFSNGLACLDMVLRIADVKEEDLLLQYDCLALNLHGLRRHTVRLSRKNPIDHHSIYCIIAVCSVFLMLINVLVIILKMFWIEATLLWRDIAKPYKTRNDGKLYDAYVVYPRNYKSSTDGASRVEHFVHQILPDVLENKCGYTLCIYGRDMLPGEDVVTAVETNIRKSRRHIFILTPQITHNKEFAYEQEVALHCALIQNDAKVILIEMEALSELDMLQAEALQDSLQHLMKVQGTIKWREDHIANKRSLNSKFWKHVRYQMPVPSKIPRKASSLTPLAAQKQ
# Target: Interleukin-1 receptor-like 1 (Homo sapiens) (UniProt Q01638)
# Experiment: blocks human ST2 binding to IL-33, primary screen, biochemical, AlphaLISA (AID 1259354)
# Details: AlphaLISA ST2-Fc/biotin-IL-33 interaction, 1 h; at 17 µM, stronger effect = higher value
SMILES,inhibition,outcome
O=C(Nc1cccc(-c2cscn2)c1)C1CCN(Cc2ccc(Cl)c(F)c2)CC1,inconclusive: 11%,–
CS(=O)CCC/C(=N/OS(=O)(=O)O)S[C@@H]1O[C@H](CO)[C@@H](O)[C@H](O)[C@H]1O (stereo partly specified),inactive,–
CCOc1ccc(OC(=O)Cn2cnc3sc4c(c3c2=O)CCCC4)cc1,inconclusive: 13%,–
CN(C)CCC1CN(C(=O)c2cccc3c2OCC3)CCO1 (stereo unspecified),inactive,–
C#CCN(C)CC[C@@H]1CC[C@H](O)[C@@H](C(=O)NCCOC)O1,inconclusive: 27%,–
O=c1[nH]c(CN2CCOCC2)nc2c1C1(CCCCC1)Cc1ccccc1-2,inactive,–
CC(C)Sc1nc2ncnc(N)c2[nH]1,inactive,–
O=C(c1cccs1)N1CCN(Cc2cccnc2)CC1,inconclusive: 13%,–
O=C(NCCN1CCCC1)C1CCN(S(=O)(=O)N2CCCCC2)CC1,inactive,–
COc1ccc(C(=O)Nc2ccc(N(C)C)cc2)cc1OC,inconclusive: 18%,–
CSCC(=O)N[C@H]1CCN2C(=O)c3ccccc3NC(=O)[C@@H]2C1,inconclusive: 17%,–
Cc1nn(C(=O)c2ccc([N+](=O)[O-])cc2)c(C)c1Sc1ccccc1,active: 42%,–
CCC(CC)C(=O)N1C[C@@H]2OCC(=O)N(Cc3ccccc3)[C@@H]2C1,inconclusive: 11%,–
Cc1cc(N2CCC3(CC2)CNC(=O)C3)nc2cc(F)ccc12,inactive,–
CNc1nc(C(=O)N2CCc3c(ncnc3N3CCOCC3)C2)cs1,inconclusive: 11%,–
O=C(c1cnc(-c2cccnc2)nc1)N1CCCC(Oc2ccc(F)cc2)C1 (stereo unspecified),inconclusive: 10%,–
CCN(CC)c1ccc(C2C(C#N)=C(N)Oc3n[nH]c(-c4ccccc4)c32)cc1 (stereo unspecified),inactive,–
COC(=O)C1=C(NC(=O)c2cc(Cl)cc(Cl)c2)CCS1,inconclusive: 20%,–
O=C(Nc1ccc(Cl)cc1)Nc1ccc(Cl)cc1Cl,inactive,–
COc1ccc(CNC(=O)[C@@H]2Cc3nc[nH]c3CN2C(=O)NC2CCCCC2)cc1,inconclusive: 10%,–
O=C(Nc1ccccc1)Nc1cccc(F)c1,inactive,–
CN1CCN(CCCNC(=O)c2cn(C)c(=O)c3c2c2ccccc2n3C)CC1,inactive,–
CC1CC2c3cccc(C(=O)O)c3C(=O)N2c2ccc(Cl)cc21 (stereo unspecified),inconclusive: 17%,–
O=C(Nc1ccccc1)C(=O)N1CCCC(CCc2c(F)cccc2F)C1 (stereo unspecified),inconclusive: 14%,–

SMILES,inhibition,outcome
CCn1cnc2sc(C(=O)NCC3COc4ccccc4O3)c(C)c2c1=O (stereo unspecified),inactive,–
Cc1ccc(-n2c(C)cc(C(=O)CN3CCCCC3)c2C)cc1,inconclusive: 10%,–
O=C1N=C2C=CC=CN2C(=O)C1Cc1ccccc1 (stereo unspecified),inconclusive: 12%,–
CCOc1ccccc1NC(=O)CCC(=O)Nc1ccc2nc(N3CCOCC3)cc(C)c2c1,inactive,–
COCCCN1C(=O)C(O)=C(C(=O)c2ccco2)C1c1cccc([N+](=O)[O-])c1 (stereo unspecified),inconclusive: 17%,–
COc1ccc(Oc2coc3cc(OCc4ccc(Cl)cc4)ccc3c2=O)cc1,inactive,–
CN(C)c1ccc(-c2nccn2CC2OCCc3ccccc32)cn1 (stereo unspecified),inactive,–
NCC1Cc2cc(-c3ccc(S(N)(=O)=O)cc3F)cc(Cl)c2O1 (stereo unspecified),inactive,–
CCCCOC(=O)Nc1ccc(S(N)(=O)=O)cc1,inconclusive: 13%,–
Cc1ccc2[nH]nc(C(=O)NCC3CCCN(S(C)(=O)=O)C3)c2c1 (stereo unspecified),inactive,–
COc1ccc(NC(=O)CCS(=O)(=O)c2cccc3cccnc23)cc1OC,inactive,–
O=C(CSC1=Nc2ccccc2C2=NC(Cc3ccccc3)C(=O)N12)c1ccc(O)c(O)c1 (stereo unspecified),inconclusive: 10%,–
COCCn1cc(C(=O)NCCc2cccc(Cl)c2)c(=O)c(C(=O)N2CCCCCCC2)c1,inconclusive: 12%,–
O=C(c1ccsc1)N1CC[C@@H](c2ccc3c(c2)OCO3)[C@H](O)C1,inactive,–
C=CCc1ccccc1OCCOCCN1CCOCC1,inactive,–
CCn1c(=NC(=O)CSCC(=O)N2CCN(c3ccccc3)CC2)sc2cc(F)ccc21,inconclusive: 10%,–
O=c1[nH]nc(-c2ccco2)n1CCc1ccccc1F,inconclusive: 16%,–
O=C(NCCCN1CCOCC1)c1ccncc1,inactive,–
O=C(Nc1cccc([N+](=O)[O-])c1)c1cn(-c2ccccc2)nc1-c1cccnc1,inconclusive: 19%,–
CC(=O)c1cccc(NC(=O)C(CC(C)C)N2C(=O)c3ccccc3C2=O)c1 (stereo unspecified),inactive,–
COc1ccc(-c2cc(C(=O)Nc3sc4c(c3C(N)=O)CCCC4)no2)cc1OC,inactive,–
CC(=O)c1cc2c(N)c(C(=O)c3ccc(Cl)cc3)sc2nc1C,active: 38%,–
O=C(NCc1ccco1)c1noc2c1CCCCC2,inconclusive: 10%,–
CCOc1ccc(C2NC(=O)c3c(sc4c3CCCC4)N2)cc1 (stereo unspecified),inactive,–

SMILES,inhibition,outcome
COc1ccc2nc(N3CCCC3C(=O)NCc3ccc(Cl)s3)nc(C)c2c1 (stereo unspecified),inconclusive: 11%,–
O=C(Nc1c[nH]c(=O)[nH]c1=O)c1ccc(N2C(=O)CCC2=O)cc1,inactive,–
Cc1cccc(N2CCN(S(=O)(=O)c3ccc4c(c3)CCN4C(=O)C3CC3)CC2C)c1 (stereo unspecified),inconclusive: 14%,–
CCN1C(=O)NC(=O)/C(=C\c2cn(CCOc3ccccc3C)c3ccccc23)C1=O,inconclusive: 18%,–
Cc1ccc(-n2c(=O)c3sccc3n(CC(=O)N3CCCC3)c2=O)cc1F,inconclusive: 13%,–
COc1cc(C2Nc3ccccc3NC3=C2C(=O)CC(c2ccccc2)C3)ccc1OC(C)=O (stereo unspecified),inactive,–
COc1cc(/C=C/C(=O)O[C@@H]2C[C@](O)(C(=O)O)C[C@@H](O)[C@H]2O)ccc1O,inconclusive: 18%,–
Cc1cc(NC(=O)c2cc3nc(-c4ccco4)cc(C(F)(F)Cl)n3n2)no1,inconclusive: 15%,–
NC(=O)C1CCN(C(=O)COc2ccc(Br)cc2Cl)CC1,inconclusive: 10%,–
CCC(Sc1nc2c(cc1C#N)CCCCC2)C(=O)Nc1cc(C)on1 (stereo unspecified),active: 30%,–
COCc1cc(C)nc2sc(C(=O)c3ccc(Cl)cc3Cl)c(N)c12,inconclusive: 17%,–
c1cncc(CN2CCN(Cc3cc4n(n3)CCCNC4)CC2)c1,inactive,–
CC1(C)CC(=O)C2=C(C1)NC1=C(C(=O)CC(C)(C)C1)C2c1ccccc1,inactive,–
COc1cccc(C(=O)Nc2ccccc2NC(=O)c2cccc(OC)c2)c1,inconclusive: 14%,–
COc1ccc(F)c(CN(C)Cc2ncc[nH]2)c1Cl,inconclusive: 12%,–
COc1ccc2c(c1)C(C(=O)NCc1cnn3ccccc13)CC(=O)N2 (stereo unspecified),inconclusive: 12%,–
CNC(=O)c1ccc(C(=O)c2cc(OC)ccc2OC)cc1,inconclusive: 10%,–
CCOc1cccc2c1OC1(C)CC2NC(=O)N1 (stereo unspecified),inconclusive: 12%,–
Cc1ccc(CN(C)CC(=O)N2CCN(C)C3(CCN(C)CC3)C2)cc1,inactive,–
COCCN(Cc1cccs1)Cc1coc2ccc(C)cc2c1=O,inconclusive: 10%,–
COc1cccc(NC(=O)O[C@@H]2CO[C@H]3[C@@H]2OC[C@@H]3Nc2nccc(-c3cccc(F)c3)n2)c1,inconclusive: 17%,–
COc1cc(Br)cc(C2NC(=O)c3c(sc4c3CCN(C)C4)N2)c1O (stereo unspecified),inactive,–
COC1=C(N2CCOCC2)C(=O)c2ccccc2C1=O,inconclusive: 18%,–
Nc1ncccc1CN1CCN(C(c2ccccc2)c2ccccc2)CC1,inconclusive: 21%,–

# Filtered by structure, the entries above containing a cyano group.
SMILES,inhibition,outcome
CCN(CC)c1ccc(C2C(C#N)=C(N)Oc3n[nH]c(-c4ccccc4)c32)cc1 (stereo unspecified),inactive,–
CCC(Sc1nc2c(cc1C#N)CCCCC2)C(=O)Nc1cc(C)on1 (stereo unspecified),active: 30%,–

# Shown tab-delimited: part of the list above
SMILES	inhibition	outcome
O=C(Nc1ccc(Cl)cc1)Nc1ccc(Cl)cc1Cl	inactive	–
COc1ccc(CNC(=O)[C@@H]2Cc3nc[nH]c3CN2C(=O)NC2CCCCC2)cc1	inconclusive: 10%	–
O=C(Nc1ccccc1)Nc1cccc(F)c1	inactive	–

# The list continues:

SMILES,inhibition,outcome
O=C(c1c(O)cccc1O)N1CCN(CCn2cncn2)CC1,inconclusive: 11%,–
O=C1CCCC2=C1C(c1cccc(O)c1)n1nc(SCc3ccccc3Cl)nc1N2 (stereo unspecified),inconclusive: 16%,–
CCN(CC)CCNC(=O)CN1C(=O)/C(=C\c2ccc(Cl)cc2)Sc2ccccc21,active: 33%,–
O=C(Nc1cccc(C(F)(F)F)c1)N[C@H]1[C@H](O)[C@@H](Oc2ccccc2)[C@@H]2OC[C@H]1O2,inconclusive: 18%,–
COc1ccc(OC)c(C2CCN(CC(=O)O)C2)c1 (stereo unspecified),inactive,–
COCCNC(=O)C1c2cc(OC)c(OC)cc2C(=O)N(C)C1c1ccc(OC)c(OC)c1 (stereo unspecified),inconclusive: 13%,–
C=CCn1cc(CNCc2ccc(F)cc2Cl)c(C)n1,inconclusive: 13%,–
Cn1c(=O)c2c(SCC(=O)N3CCCc4ccccc43)nc(-c3ccco3)nc2n(C)c1=O,inconclusive: 14%,–
Cc1ccccc1Cn1c(NCCc2ccccc2)nc2c1c(=O)n(C)c(=O)n2C,inactive,–
CS(=O)(=O)c1ccc(-c2cccc3c2OC(CNC(=O)c2cc[n+]([O-])cc2)C3)cc1 (stereo unspecified),inconclusive: 17%,–
CN(Cc1n[nH]c2c1CCCCC2)C(=O)CC1(c2ccc(-c3ccccc3)cc2)CC(=O)N(C)C1=O (stereo unspecified),inconclusive: 14%,–
COCCNC(=O)NC1CCCCC1,inactive,–
COCCn1cc(C(=O)NCCCN2CCCC2)c2c3ccccc3n(C)c2c1=O,inactive,–
CCCNC(=O)C1(S(=O)(=O)c2ccc(Cl)cc2)CC1,inconclusive: 10%,–
Cc1cccc2nc3c(nc12)C(=O)c1ccccc1C3=O,active: 32%,–
CCCCN(C)CCCNC(=O)CN1C(=O)/C(=C\c2cccc(Cl)c2)Sc2ccccc21,active: 43%,–
O=C(O)CC1(CC(=O)N2CCN3C(=O)N(CCO)C(=O)[C@H]3C2)CCCC1,inactive,–
COC(=O)c1c(NC(=O)C(C)C)sc(C(N)=O)c1C,inactive,–
COc1cccc(-n2cc(CN(C)Cc3cnc(N(C)C)nc3)cn2)c1,inactive,–
CCN(CC)c1ccc(CNc2ccc3c(c2)ncn3CC)cc1,active: 52%,inactive
O=C(c1ccc(F)cc1)c1c[nH]c2c(F)cc(F)cc2c1=O,inconclusive: 26%,–
CCc1ccc(Cn2c(CNS(=O)(=O)c3ccccc3)nc3cccnc32)cc1,inactive,–
O=C(CSc1nc2c(c(=O)n1-c1ccc(F)cc1)SCC2)c1ccc(Cl)cc1,inactive,–
